Data reported in the supplement of paper PMC5407854, “Inhibitor of ppGalNAc-T3-mediated O-glycosylation blocks cancer cell invasiveness and lowers FGF23 levels” (eLife, 2017).
The other results are listed elsewhere or left out. Small differences around the control level are noise.

Tested on: ppGalNAc-T2 sensor
Test: T2 sensor activation Q score (MG/GFP ratio z-score vs DMSO controls) (SD units); higher = more sensor activation (inhibition of ppGalNAc-T2 glycosylation)
Conditions: HEK293 sensor cells; 10 µM; 6 h
Method: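 Cells were treated with compound at 10 uM for 6 h, then MG/GFP ratio was read by flow cytometry (10,000 cells per well, duplicate wells). Q = (R - R_neg)/SD_neg relative to DMSO vehicle controls; the signal rises when the glycosyltransferase is inhibited.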

Row | Structure (SMILES) | T2 sensor activation Q score
1 | COc1cc(OC)c(CN2CCCN(C)CC2)cc1Br | 0.57
2 | COc1ccc(C2NC(=O)N(C)C(C)=C2[N+](=O)[O-])cc1 (stereo not given) | -0.25
3 | CCc1ccccc1NC(=O)C1CCCCC1C(=O)O (stereo not given) | 0.87
4 | CCN(CC)CCN(C)Cc1ccccc1F | 0.305
5 | C=CCSc1nc(O)c(CC)c(=O)n1-c1ccccc1 | 0.79
6 | CCc1nc(C)cc([N+](=O)[O-])c1O | -0.845
7 | COc1ccccc1CNC(=O)CCc1ccccc1 | -1.18
8 | COc1ccc(C(=O)N2CCN(C(=O)c3ccco3)CC2)cc1 | -1.33
9 | NNC(=O)CCc1ccccc1O | -1.76
10 | CC1CCN(S(=O)(=O)c2ccc(Br)c(C(=O)O)c2)CC1 | -0.685
11 | CCN(CC)C(=O)C1CCCN(Cc2ccc(F)c(F)c2)C1 (stereo not given) | 0.27
12 | c1ccc(-c2nnn(C34CC5CC(CC(C5)C3)C4)n2)cc1 | 0.03
13 | COc1ccccc1N1CCN(Cc2ccc(OC)c(C)c2OC)CC1 | -0.695
14 | CC(C)(C)n1ncc(O)c(Cl)c1=O | -0.19
15 | COc1ccc(CCC(C)Nc2ccc(F)cc2)cc1 (stereo not given) | 2.17
16 | Cc1nc2sc(-c3ccccc3)nn2c(=O)c1Br | -0.565
17 | CC(=O)c1ccc(N2CCN(Cc3ccc(N(C)C)cc3)CC2)cc1 | 0.94
18 | O=c1[nH]c2cccnc2n1-c1ccccc1 | -0.575
19 | CCN(C(=O)CCc1ccccc1)c1ccccc1 | -0.245
20 | COc1cc(CO)c(C2(C(=O)O)CCCC2)cc1OC | 0.7

Of the compounds above, 3 contain sulfur.
Row | Structure (SMILES) | T2 sensor activation Q score
5 | C=CCSc1nc(O)c(CC)c(=O)n1-c1ccccc1 | 0.79
10 | CC1CCN(S(=O)(=O)c2ccc(Br)c(C(=O)O)c2)CC1 | -0.685
16 | Cc1nc2sc(-c3ccccc3)nn2c(=O)c1Br | -0.565

Additional structures follow:

Row | Structure (SMILES) | T2 sensor activation Q score
21 | CC1(C)Cc2ccccc2-c2nc3n(c(=O)c21)CCS3 | -0.36
22 | CCc1nc(C)cc(CN(C)C)c1O | 0.06
23 | Cc1cccc(N2C(=O)CC(N3CCN(C)CC3)C2=O)c1 (stereo not given) | -0.105
24 | COc1ccccc1N1CCN(C(=O)c2cccc(C)c2)CC1 | -0.435
25 | Cc1ccc(NC2CC(=O)N(c3cccc(Cl)c3)C2=O)cc1 (stereo not given) | -0.78
26 | c1csc(-c2cnc3ccccc3n2)c1 | -0.785
27 | COc1ccccc1C(=O)Nc1ccc2oc(-c3ccccc3C)nc2c1 | -0.295
28 | O=C(c1ccc(Br)cc1)N1CCN(c2ccc([N+](=O)[O-])cc2)CC1 | 0.135
29 | CCC1CCCCN1S(=O)(=O)c1ccc(C)c(C)c1 (stereo not given) | -0.185
30 | Cc1cc(OCC(=O)NN)ccc1Cl | 1.33
31 | Cc1ccc(Oc2ccc(-c3nc(N)nc(N)n3)cc2)cc1 | 0.5
32 | CCC(=O)Nc1nc2ccccc2n1CCN1CCOCC1 | 0.755
33 | O=C(C1CCN(S(=O)(=O)c2ccccc2)CC1)N1CCN(Cc2ccccc2)CC1 | 0.105
34 | CC1(C)CC(=O)C2=C(C1)Nc1ccccc1NC2c1cccc([N+](=O)[O-])c1 (stereo not given) | -1.04
35 | CCOc1cc(CN2CCN(c3ccccc3OC)CC2)ccc1OC | -0.655
36 | CCOc1ccc(CN2CCSCC2)cc1 | 0.48
37 | O=[N+]([O-])c1ccc(CN2CCN(C/C=C/c3ccccc3)CC2)cc1 | -0.34
38 | O=CN1N=C(c2ccccc2)CC1c1ccccc1 (stereo not given) | -1.28
39 | CCOc1ccccc1CN1CCc2ccccc2C1 | 0.795
40 | Cc1cc(Br)ccc1NC(=O)CCc1ccccc1 | -1.18
